# Structures can show the parent of a compound that is named as a salt. The list shows a part of the results. Single values of this set are uncertain.
# System: Peyronie's disease tunica albuginea primary fibroblasts
# Assay: inhibition of TGF-beta1-induced alpha-SMA expression (myofibroblast transformation), relative to TGF-beta1-only and untreated controls; higher = stronger inhibition of myofibroblast transformation
# Settings: 10 µM; TGF-beta1 10 ng/mL; 72 h
row,SMILES,inhibition of TGF-beta1-induced alpha-SMA expression
1,CC#C[C@]1(O)CC[C@H]2[C@@H]3CCC4=CC(=O)CCC4=C3[C@@H](c3ccc(N(C)C)cc3)C[C@@]21C [Mifepristone],32.5%
2,COC(=O)N[C@@H](C)CNc1nccc(-c2cn(C(C)C)nc2-c2cc(Cl)cc(NS(C)(=O)=O)c2F)n1 [Encorafenib (LGX818)],97.4%
3,CC[C@@H]1C(=O)N(C)c2cnc(Nc3ccc(C(=O)N[C@H]4CC[C@H](N5CCN(CC6CC6)CC5)CC4)cc3OC)nc2N1C(C)C [Volasertib (BI 6727)],> 100%
4,CCn1c(=O)c2c(nc(/C=C/c3ccc(OC)c(OC)c3)n2C)n(CC)c1=O [Istradefylline],-3.88%
5,CC1=NN(c2ccc(C)c(C)c2)C(=O)/C1=N\Nc1cccc(-c2cccc(C(=O)O)c2)c1O [Eltrombopag Olamine],1.68%
6,CC1=NN(c2ccc(C)c(C)c2)C(=O)/C1=N\Nc1cccc(-c2cccc(C(=O)O)c2)c1O [Eltrombopag],25.1%
7,C[C@@H]1C/C=C/C=C/C=C/C=C/[C@H](O[C@@H]2O[C@H](C)[C@@H](O)[C@H](N)[C@@H]2O)C[C@@H]2O[C@](O)(C[C@@H](O)C[C@H]3O[C@@H]3/C=C/C(=O)O1)C[C@H](O)[C@H]2C(=O)O [Natamycin],9.67%
8,CC(C(O)c1ccc(O)cc1)N1CCC(Cc2ccccc2)CC1 (configuration not stated) [Ifenprodil Tartrate],0.156%
9,CC(C)[C@H](N)C(=O)OCCOCn1cnc2c(=O)nc(N)[nH]c21 [Valaciclovir HCl],19.3%
10,CN1CCN2c3ncccc3Cc3ccccc3C2C1 (configuration not stated) [Mirtazapine],35.4%
11,CC[C@H](NC(=O)[C@H](C)NC)C(=O)N1C[C@@H](O)C[C@H]1Cc1c(-c2[nH]c3cc(F)ccc3c2C[C@@H]2C[C@H](O)CN2C(=O)[C@H](CC)NC(=O)[C@H](C)NC)[nH]c2cc(F)ccc12 [Birinapant],61.8%
12,CC(C)(Oc1ccc(Cl)cc1)C(=O)OCCOC(=O)c1cccnc1 [Etofibrate],-13%
13,COC(=O)N/N=C/c1c[n+]([O-])c2ccccc2[n+]1[O-] [Carbadox],16.9%
14,CN(C(=O)CN(CCO)CC(=O)N(C)C(C)(C)Cc1ccccc1)C(C)(C)Cc1ccccc1 [Oxethazaine],47.1%
15,Cc1cc(C)nc(NS(=O)(=O)c2ccc(N)cc2)n1 [Sulfamethazine Sodium Salt],0.177%
16,Cc1cc(C)nc(NS(=O)(=O)c2ccc(N)cc2)n1 [Sulfamethazine],3.9%
17,CC1(C)O[C@@H]2C[C@H]3[C@@H]4C[C@H](F)C5=CC(=O)C=C[C@]5(C)[C@@]4(F)[C@@H](O)C[C@]3(C)[C@]2(C(=O)CO)O1 [Fluocinolone Acetonide],41.6%
18,CNC(=O)[C@@H](NC(=O)[C@H](CC(C)C)[C@H](O)C(=O)NO)C(C)(C)C [Marimastat (BB-2516)],3.07%
19,C[C@]12CC[C@@H]3c4ccc(O)cc4C[C@@H](CCCCCCCCC[S+]([O-])CCCC(F)(F)C(F)(F)F)[C@H]3[C@@H]1CC[C@@H]2O (some centres not stated) [Fulvestrant],19.6%
20,CO/N=C(\C(=O)N[C@@H]1C(=O)N2C(C(=O)O)=C(COC(C)=O)CS[C@H]12)c1csc(N)n1 [Cefotaxime sodium],9.28%
21,NC(=O)C1CCCc2c1[nH]c1ccc(Cl)cc21 (configuration not stated) [Selisistat (EX 527)],71.1%

# Looked up one by one from the entries so far:
row,SMILES,inhibition of TGF-beta1-induced alpha-SMA expression
19,C[C@]12CC[C@@H]3c4ccc(O)cc4C[C@@H](CCCCCCCCC[S+]([O-])CCCC(F)(F)C(F)(F)F)[C@H]3[C@@H]1CC[C@@H]2O (some centres not stated) [Fulvestrant],19.6%
16,Cc1cc(C)nc(NS(=O)(=O)c2ccc(N)cc2)n1 [Sulfamethazine],3.9%
11,CC[C@H](NC(=O)[C@H](C)NC)C(=O)N1C[C@@H](O)C[C@H]1Cc1c(-c2[nH]c3cc(F)ccc3c2C[C@@H]2C[C@H](O)CN2C(=O)[C@H](CC)NC(=O)[C@H](C)NC)[nH]c2cc(F)ccc12 [Birinapant],61.8%
20,CO/N=C(\C(=O)N[C@@H]1C(=O)N2C(C(=O)O)=C(COC(C)=O)CS[C@H]12)c1csc(N)n1 [Cefotaxime sodium],9.28%
12,CC(C)(Oc1ccc(Cl)cc1)C(=O)OCCOC(=O)c1cccnc1 [Etofibrate],-13%
6,CC1=NN(c2ccc(C)c(C)c2)C(=O)/C1=N\Nc1cccc(-c2cccc(C(=O)O)c2)c1O [Eltrombopag],25.1%

# Going on with the list.

row,SMILES,inhibition of TGF-beta1-induced alpha-SMA expression
1,COC(=O)[C@H](Cc1ccccc1)NC(=O)[C@@H](N)CC(=O)O [Aspartame],7.58%
2,N#C/C(=C1/SC[C@@H](c2ccc(Cl)cc2Cl)S1)n1ccnc1 [Luliconazole],-16.4%
3,O=C1O[C@H]([C@@H](O)CO)C([O-])=C1O.[Na+] [Sodium ascorbate],1.11%
4,CCCCOc1cc(C(=O)OCCN(CC)CC)ccc1N [Oxybuprocaine HCl],45.1%
5,Clc1ccc2nsnc2c1NC1=NCCN1 [Tizanidine],0.172%
6,Clc1ccc2nsnc2c1NC1=NCCN1 [Tizanidine HCl],20.1%
7,"Cc1cc(Nc2cc(N3CCN(C)CC3)nc(Sc3ccc(NC(=O)C4CC4)cc3)n2)n[nH]1 [Tozasertib (VX-680, MK-0457)]",59.7%
8,CC(C)Oc1ccc2c(=O)c(-c3ccccc3)coc2c1 [Ipriflavone (Osteofix)],-9.87%
9,CC(=O)Nc1nnc(S(N)(=O)=O)s1 [Acetazolamide],23.9%
10,O=C(O)C1=C(CSc2nnnn2CS(=O)(=O)O)CS[C@@H]2[C@H](NC(=O)[C@H](O)c3ccccc3)C(=O)N12 [Cefonicid sodium],-9.67%
11,CCc1cc2c(cc1CC)CC(NC[C@H](O)c1ccc(O)c3[nH]c(=O)ccc13)C2 [Indacaterol],14.8%
12,CCc1cc2c(cc1CC)CC(NC[C@H](O)c1ccc(O)c3[nH]c(=O)ccc13)C2 [Indacaterol Maleate],12.7%
13,C=C[C@]1(C)C[C@@H](OC(=O)CSC(C)(C)CNC(=O)[C@H](N)C(C)C)[C@]2(C)[C@H](C)CC[C@]3(CCC(=O)[C@H]32)[C@@H](C)[C@@H]1O [Valnemulin HCl],-5.12%
14,Cc1c(-c2ccc(O)cc2)n(Cc2ccc(OCCN3CCCCCC3)cc2)c2ccc(O)cc12 [Bazedoxifene Acetate],72.4%
15,Cc1c(-c2ccc(O)cc2)n(Cc2ccc(OCCN3CCCCCC3)cc2)c2ccc(O)cc12 [Bazedoxifene HCl],39%
16,NC[C@H](O)c1ccc(O)c(O)c1 [Noradrenaline bitartrate monohydrate],-7.32%
17,CCN(CC)CCNC(=O)c1ccc(N)cc1 [Procainamide HCl],32.5%
18,CC[C@H]1OC(=O)[C@H](C)[C@@H](O[C@H]2C[C@@](C)(OC)[C@@H](O)[C@H](C)O2)[C@H](C)[C@@H](O[C@@H]2O[C@H](C)C[C@H](N(C)C)[C@H]2O)[C@](C)(O)C[C@@H](C)CN(C)[C@H](C)[C@@H](O)[C@]1(C)O [Azithromycin Dihydrate],21.8%
19,CC[C@H]1OC(=O)[C@H](C)[C@@H](O[C@H]2C[C@@](C)(OC)[C@@H](O)[C@H](C)O2)[C@H](C)[C@@H](O[C@@H]2O[C@H](C)C[C@H](N(C)C)[C@H]2O)[C@](C)(O)C[C@@H](C)CN(C)[C@H](C)[C@@H](O)[C@]1(C)O [Azithromycin],42.2%
20,CN1CCc2nc(C(=O)N[C@@H]3C[C@@H](C(=O)N(C)C)CC[C@@H]3NC(=O)C(=O)Nc3ccc(Cl)cn3)sc2C1 [Edoxaban tosylate Monohydrate],44.8%
21,CN1CCc2nc(C(=O)N[C@@H]3C[C@@H](C(=O)N(C)C)CC[C@@H]3NC(=O)C(=O)Nc3ccc(Cl)cn3)sc2C1 [Edoxaban],10.9%

row,SMILES,inhibition of TGF-beta1-induced alpha-SMA expression
1,CN[C@H]1CC[C@@H](c2ccc(Cl)c(Cl)c2)c2ccccc21 [Sertraline HCl],-5.83%
2,O=C(O)c1cccc(-c2noc(-c3ccccc3F)n2)c1 [Ataluren (PTC124)],-0.0335%
3,Nc1ccc(S(=O)(=O)Nc2nccs2)cc1 [Sulfathiazole],18.3%
4,CC(C)[N+]1(C)[C@@H]2CC[C@H]1C[C@@H](OC(=O)C(CO)c1ccccc1)C2 (some centres not stated) [Ipratropium Bromide],12.1%
5,Cc1ccc(-c2cc(C(F)(F)F)nn2-c2ccc(S(N)(=O)=O)cc2)cc1 [Celecoxib],57.5%
6,CC(C)NCC(O)COc1ccc(CC(N)=O)cc1 (configuration not stated) [Atenolol],55.5%
7,CCOC(=O)[C@H]1O[C@@H]1C(=O)N[C@@H](CC(C)C)C(=O)NCCC(C)C [Aloxistatin],11.8%
8,CC(C)(C)c1cc(C(C)(C)C)c(NC(=O)c2c[nH]c3ccccc3c2=O)cc1O [Ivacaftor (VX-770)],-9.84%
9,Cc1ccc([C@@H]2O[C@H](CO)[C@@H](O)[C@H](O)[C@H]2O)cc1Cc1ccc(-c2ccc(F)cc2)s1 [Canagliflozin],11.8%
10,CN1CCN(CC(=O)N2c3ccccc3C(=O)Nc3cccnc32)CC1 [Pirenzepine dihydrochloride],24.6%
11,Cn1c(=O)c2c(ncn2CC2OCCO2)n(C)c1=O [Doxofylline],-7.01%
12,NC(=O)[C@@H]1CSSCCC(=O)N[C@@H](CCCCN=C(N)N)C(=O)NCC(=O)N[C@@H](CC(=O)O)C(=O)N[C@@H](Cc2c[nH]c3ccccc23)C(=O)N2CCC[C@H]2C(=O)N1 [Eptifibatide Acetate],7.53%
13,CC[C@H](C)[C@H](N)C(=O)O [isoleucine],15.5%
14,CCOc1nc2cccc(C(=O)O)c2n1Cc1ccc(-c2ccccc2-c2nnn[nH]2)cc1 [Candesartan],-3.55%
15,C[C@@](Cc1ccc(O)c(O)c1)(NN)C(=O)O [Carbidopa],-1.25%
16,Nc1ncnc2c1ncn2[C@@H]1O[C@H](CO)[C@@H](O)[C@@H]1O [Vidarabine monohydrate],-9.59%
17,Nc1ncnc2c1ncn2[C@@H]1O[C@H](CO)[C@@H](O)[C@@H]1O [Vidarabine],4.43%
18,CCCCC(CC)COC(=O)CC(C(=O)OCC(CC)CCCC)S(=O)(=O)O (configuration not stated) [Docusate Sodium],-44.8%
19,CCCCCCCCCC(=O)N[C@@H](Cc1c[nH]c2ccccc12)C(=O)N[C@H](CC(N)=O)C(=O)N[C@@H](CC(=O)O)C(=O)N[C@@H]1C(=O)NCC(=O)N[C@@H](CCCN)C(=O)N[C@@H](CC(=O)O)C(=O)N[C@H](C)C(=O)N[C@@H](CC(=O)O)C(=O)NCC(=O)N[C@H](CO)C(=O)N[C@@H]([C@H](C)CC(=O)O)C(=O)N[C@@H](CC(=O)c2ccccc2N)C(=O)O[C@@H]1C [Daptomycin],10.9%
20,COc1cccc2c1C(=O)c1c(O)c3c(c(O)c1C2=O)CC(O)(C(=O)CO)CC3OC1CC(N)C(O)C(C)O1 (configuration not stated) [Doxorubicin (Adriamycin) HCl],> 100%

# Source: the supplement of paper PMC9744312
